{"source": "patent US7456152B2", "about": "“Peptide inhibitors of thrombin as potent anticoagulants” (priority 2004, dated 2008)", "biological_target": "T1, human α-thrombin (Homo sapiens, UniProt P00734)", "T1 construct": "Bovine and human α-thrombins were supplied by Haematologic Technologies Inc (VT, USA); cleaved off efficiently by thrombin to generate the free N-terminus of the A-chain of human thrombin; purchased Haematologic Technologies Inc (VT, USA)", "assay": "Inhibition of the amidolytic activity of thrombin (Tos-Gly-Pro-Arg-p-nitroanilide hydrolysis)", "format": "biochemical", "settings": "concentrations as high as 100 μM", "method": "Kinetics of thrombin-catalyzed hydrolysis of the chromogenic substrate Tos-Gly-Pro-Arg-p-nitroanilide were followed by absorbance at 405 nm on a Spectramax plate reader thermostated at either 25° C. or 37° C. according to the method of Maragnore et al (supra). The concentrations of Tos-Gly-Pro-Arg-p-nitroanilide ranged from 2 to 400 μM. Initial rates were calculated under conditions of <15% hydrolysis of the total substrate. The KM and Vmax values were calculated accordingly and kcat values were determined by dividing Vmax by the enzyme (thrombin) concentration. […] Kinetics data from initial rate experiments were used to construct Lineweaver-Burke plot; i.e. the relationship of (substrate concentration)^−1 versus (initial velocity)^−1 which. were analysed by linear regression with MicroCal Origin 4.1 program (MicroCal, MD) or using the GraphPad Prism software. The Ki values of the inhibitors were determined using the equation: Ki=[I]/{(SL0/SL1)−1}, where […]\nAlternatively, Dixon plots of inverse velocity versus the inhibitor concentrations were generated with the Sigmaplot™ software. Every Dixon plot contained an array of data corresponding to different substrate concentrations and the Ki values were determined from the intersections. […]", "note": "Part of at least one peptide drawing is inferred or uncertain, most often the ends. Ends that are not written are not given here."}
{"substance": "FNPRP [FN, FNPRP]", "values": [{"measurement": "inhibition of thrombin-catalysed hydrolysis of the chromogenic substrate", "value": "no significant inhibition"}]}
